# Data source: PubChem BioAssay AID720505 (Drosophila RNAi Screening Center, 2013)
# Assay: 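Knock-downs that reduce calcium influx once internal stores are emptied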 (primary screen)
# Cell system: Drosophila S2R+ cells
# Reagent: long dsRNA against Drosophila genes
# Treatment: thapsigargin (2 µM) in calcium-free buffer to empty internal stores, then 2 mM calcium added back
# Measurement: 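Fluo-4 signal in 384-well plates read on a FLIPR after thapsigargin (2 µM, calcium-free) store depletion and 2 mM calcium add-back; unnormalised mean endpoint per well; screen run twice, selected wells retested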
# Scale: calcium signal and retest calcium signal: higher = more calcium entry after store depletion
# Call rule: 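Knock-downs counted as hits when calcium entry dropped relative to STIM1 positive and Rho1 negative controls present on each plate; roughly 1500 genes called, with reductions of differing size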
# Meaning of the calls: active = called as lowering calcium entry; inactive = not called
# In all, the deposit lists about 20,000 reagents; this is a random part of those with a known target gene and a result. In the full data, about 2,100 (10%) were called active. 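Raw plate signals without normalisation; calls rest on control-based scores that were not deposited; replicate 2 separates called from uncalled poorly.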 Names joined by + are all predicted targets of the reagent. No sequences are given here. The record does not give: the amount of reagent, the time to read-out.
Target gene,DRSC id,"calcium signal, replicate 1","calcium signal, replicate 2","retest calcium signal, replicate 1","retest calcium signal, replicate 2",call
CG2004,DRSC18200,283,110,,,inactive
CG5641,DRSC15852,115,138,,,inactive
Or47b,DRSC07492,126,174,,,inactive
CG1371,DRSC06409,210,211,,,inactive
CG5639,DRSC15851,62.7,85.5,,,active
CG17917,DRSC12570,115,138,,,inactive
CG12237,DRSC19449,122,112,65.4,90.4,inactive
CG12237,DRSC22256,121,136,,,inactive
Slc25A46a,DRSC20125,100,134,,,inactive
CG15517,DRSC15056,175,164,,,inactive
CG12730,DRSC17885,156,90.4,,,inactive
orion,DRSC18213,197,102,,,inactive
orion,DRSC18214,172,136,,,inactive
hog,DRSC19057,81.5,111,,,inactive
CG18179,DRSC10303,84.1,145,,,inactive
Hsp23,DRSC11188,121,132,,,inactive
TTLL3A,DRSC02143,141,133,,,inactive
gkt,DRSC00821,92.8,110,,,inactive
CG7362,DRSC16236,145,138,99.6,81.5,inactive
CG7763,DRSC07043,134,168,,,inactive
ScsbetaG,DRSC11294,110,85.4,,,inactive

As entered above:
CG12237 [DRSC19449], calcium signal, replicate 2 → 112
CG7362 [DRSC16236], retest calcium signal, replicate 2 → 81.5
CG5641 [DRSC15852], calcium signal, replicate 2: 138
CG18179 [DRSC10303], calcium signal, replicate 1 → 84.1

Additional records follow:
Target gene,DRSC id,"calcium signal, replicate 1","calcium signal, replicate 2","retest calcium signal, replicate 1","retest calcium signal, replicate 2",call
Lrch,DRSC02996,74.7,87.4,,,inactive
CG34278,DRSC13208,,,,,active
ACOX1,DRSC05941,131,85,,,inactive
CG13551,DRSC21847,85.3,108,,,inactive
CR18166,DRSC18147,60.1,89,,,active
CG17648,DRSC00508,182,147,,,inactive
CG6685,DRSC10695,88.2,101,,,inactive
CR18275,DRSC18151,64.2,108,,,active
Edg91,DRSC16657,129,165,,,inactive
z,DRSC18855,135,155,,,inactive
z,DRSC23134,126,193,,,inactive
AhcyL2,DRSC14107,118,160,,,inactive
Sec13,DRSC14144,162,253,,,inactive
CG33127,DRSC00011,66.3,152,,,inactive
Gp150,DRSC04618,56.1,61.3,57.7,197,active
nullo,DRSC18807,210,139,,,inactive
firl,DRSC02428,72.9,98.7,,,active
sle + CG12592,DRSC21387,113,96.2,,,inactive
Ccp84Ab,DRSC12587,105,158,,,inactive
CG12259,DRSC14486,116,120,,,inactive
CG12259,DRSC23281,98.2,148,,,inactive
CG43187,DRSC05607,70.4,102,,,inactive
Sumo,DRSC03611,116,207,,,inactive
eIF5B,DRSC08429,93.9,116,,,inactive
eIF5B,DRSC08710,72.3,97,,,inactive
CG15554,DRSC15092,190,196,,,inactive
Tsp42Ek,DRSC06187,128,97.6,,,inactive
Pect,DRSC02867,78.7,106,,,inactive
Pect,DRSC02868,89.2,121,,,inactive
ValRS-m,DRSC10535,85.5,66,,,inactive
RpS16,DRSC04442,44.8,142,,,active
Sec23,DRSC12387,133,101,123,143,inactive
dimm,DRSC03100,243,89.5,,,inactive
CG14564,DRSC11725,99.2,177,,,inactive
CG14564,DRSC22388,74.2,73.8,,,inactive
